{"sequences": {"note": "Chains of the proteins cited; added tags and fusions are not shown. Lines headed by an entry give the natural chain unless they say otherwise; changes in a name come on top.", "UniProt P19793": "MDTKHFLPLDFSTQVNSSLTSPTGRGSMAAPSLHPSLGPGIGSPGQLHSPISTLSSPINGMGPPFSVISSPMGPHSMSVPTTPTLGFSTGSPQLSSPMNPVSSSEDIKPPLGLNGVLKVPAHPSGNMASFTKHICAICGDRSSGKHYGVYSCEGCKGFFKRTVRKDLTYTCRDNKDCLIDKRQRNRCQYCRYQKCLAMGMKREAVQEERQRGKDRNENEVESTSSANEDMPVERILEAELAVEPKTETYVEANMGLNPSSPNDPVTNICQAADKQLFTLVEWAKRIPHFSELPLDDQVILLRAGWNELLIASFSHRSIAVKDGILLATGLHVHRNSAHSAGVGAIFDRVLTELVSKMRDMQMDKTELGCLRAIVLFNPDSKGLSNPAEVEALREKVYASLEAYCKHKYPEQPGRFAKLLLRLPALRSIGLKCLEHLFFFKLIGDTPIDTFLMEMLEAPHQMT"}, "source": "PubChem BioAssay (Tox21)", "note": "Where “and” joins values, the source holds several entries; their conditions need not be identical. Equal entries are not always repeated. Inconclusive results, whose numbers are uncertain, are shown with a selection of clear calls. Potencies beside an inconclusive call are fits to weak or partial responses and may not hold up. Some structures have more than one record in an assay (separate samples or runs), and their calls can disagree. Calls of active or inactive are those of the source. Calls follow the shape of the full dose curve. % is scaled to controls: 0 for no effect and ±100 for the full control effect; potency is read from the fitted curve at half-maximal effect.", "data": [{"target": "Retinoic acid receptor RXR-alpha (Homo sapiens) (UniProt P19793)", "assay": "qHTS assay to identify small molecule agonists of the RXR signaling pathway (AID 1159527); also: nearly all actives have a fitted effect of over 35% in size", "settings": "HEK293T RXRa-UAS-bla, beta-lactamase ratio, 16 h; activation: at 76.8 µM (top of the series) unless noted", "outline": "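16 hr incubation of compound-treated RXR-alpha-UAS-bla HEK 293T cells (2% charcoal-stripped FBS, 37 C) preceded a 2 hr room-temperature LiveBLAzer FRET substrate step and blue/green fluorescence measurement.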", "values": [{"molecule": "C1CNCCN1", "Potency": "active: 11.3 µM"}, {"molecule": "CCO[Si](C)(CCCOCC1CO1)OCC", "note": "(stereo not given)", "activation": "inactive: -0.335%"}, {"molecule": "CCCOC(=O)c1cc(O)c(O)c(O)c1", "Potency": "inconclusive: 30.9 µM [rising, partial curve, poor fit]", "activation": "inconclusive: -2.74%"}, {"molecule": "CCCN[C@H]1CCc2nc(N)sc2C1", "Potency": "inactive"}, {"molecule": "CCCC1CCOC(C)S1", "note": "(stereo not given)", "activation": "inconclusive: -26.9%"}, {"molecule": "Oc1ccccc1", "Potency": "active: 11 µM", "activation": "inconclusive: 23.3%"}, {"molecule": "CC1(C)S[C@@H]2[C@H](NC(=O)COc3ccccc3)C(=O)N2[C@H]1C(=O)O", "activation": "inconclusive: -0.0979%"}, {"molecule": "CCCCCCCCCCCCO", "Potency": "inconclusive: 43.1 µM [inhibitor, partial curve]", "activation": "inconclusive: 5.27%"}, {"molecule": "CCCCCCCCCCCO", "Potency": "active: 3.89 µM"}, {"molecule": "O=C1CCCc2c(O)cccc21", "activation": "inactive: 3.98% [at 35.3 µM]"}, {"molecule": "CN(C)CCN1CCN(c2cccc(Cl)c2)C1=O", "activation": "inactive: 1.57% [at 35.3 µM]"}, {"molecule": "CC/C(=C(/CC)c1ccc(O)cc1)c1ccc(O)cc1", "Potency": "inconclusive: 61.2 µM [cytotoxic, single point]", "activation": "inconclusive: -34.4%"}, {"molecule": "CC1(C)CCC[C@]2(C)[C@H]3CCO[C@]3(C)CC[C@@H]12", "activation": "inactive: 9.32%"}, {"molecule": "CC(=O)O[C@@H]1C(=O)O[C@@H]2[C@H]1OC(=O)[C@@H]2OC(C)=O", "activation": "inconclusive: 8.14% [at 35.3 µM]"}, {"molecule": "Nc1cccc(N)c1", "Potency": "inconclusive: 0.0012 µM [rising, full curve, poor fit]", "activation": "inconclusive: 20.7%"}, {"molecule": "O=P(O)(O)C(O)(Cc1cccnc1)P(=O)(O)O", "activation": "inactive: 1.1% [at 35.3 µM]"}, {"molecule": "OC1CCCCCCCCCCC1", "Potency": "inconclusive: 22.1 µM [activator]", "activation": "inconclusive: 17.8%"}, {"molecule": "CCCCCCCCCCCC(=O)N(CC)CC", "activation": "inconclusive: -29.3%"}, {"molecule": "CCCCC/C(=C\\c1ccccc1)CO", "activation": "inactive: -10.9%"}, {"molecule": "CCOC(=O)[C@H](CCc1ccccc1)N[C@@H](C)C(=O)N1Cc2cc(OC)c(OC)cc2C[C@H]1C(=O)O", "activation": "inactive: 1.02% [at 35.3 µM]"}, {"molecule": "CCCCCCCCCCC=O", "activation": "inactive: 1.09%"}, {"molecule": "Cc1ccc(C)c(O)c1C", "Potency": "inconclusive: 48.7 µM [activator] and inconclusive: 54.9 µM [activator, single point]"}, {"molecule": "Oc1cccc(O)c1", "Potency": "inconclusive: 42.4 µM [activator, partial curve]"}, {"molecule": "CC1=CC2C3CC(C=C3C)C2C1", "note": "(stereo not given)", "activation": "inconclusive: 7.46%"}, {"molecule": "Clc1cc(Cl)c(Cl)nc1Cl", "activation": "inactive: 5.65%"}, {"molecule": "COc1ccc(COC=O)cc1", "activation": "inconclusive: -22.7%"}, {"molecule": "COC(=O)CC(=O)C(C)(C)C", "Potency": "inconclusive: 54.9 µM [activator, partial curve, poor fit]"}, {"molecule": "CN1CCOCC1", "Potency": "inactive"}, {"molecule": "O=C(O)C(O)[C@H](O)[C@@H](O)[C@H](O)[C@H](O)CO", "note": "(stereo not given in full)", "Potency": "inconclusive: 55.6 µM"}, {"molecule": "CC(C)(C)OCC1CO1", "note": "(stereo not given)", "activation": "inactive: 6.93%"}, {"molecule": "CCOC(=O)c1c(N)sc2c1CCN(Cc1ccccc1)C2", "activation": "inactive: -5.65% [at 35.3 µM]"}, {"molecule": "O=c1n(CCCN2CCN(c3cccc(Cl)c3)CC2)nc2ccccn12", "activation": "inconclusive: -23.7%"}, {"molecule": "Cc1cc(C(=C2C=CC(=Nc3ccc(S(=O)(=O)O)cc3S(=O)(=O)O)C=C2)c2ccc(Nc3ccc(S(=O)(=O)O)cc3)cc2)ccc1N", "activation": "inactive: -1.12% [at 35.3 µM]"}, {"molecule": "CCCCCC(CC)OC(=O)CCCOc1ccc(Cl)cc1Cl", "note": "(stereo not given)", "Potency": "active: 4.35 µM"}, {"molecule": "CCn1c2ccccc2c2cc([N+](=O)[O-])ccc21", "Potency": "inconclusive: 24.5 µM [fluorescent, full curve, poor fit]"}, {"molecule": "CCc1ccc(C(=O)C(C)CN2CCCCC2)cc1", "note": "(stereo not given)", "Potency": "inconclusive: 21.3 µM"}, {"molecule": "CC(C(=O)O)c1ccc(-c2ccccc2)c(F)c1", "note": "(stereo not given)", "Potency": "inconclusive: 27.5 µM [rising, partial curve, poor fit]"}, {"molecule": "C=CCOC(=O)/C=C\\C(=O)OCC=C", "activation": "inconclusive: -29.6%"}, {"molecule": "O=C(O)c1cccc(N(Cc2cccnc2)c2ccc(OC(F)F)c(OC(F)F)c2)c1", "Potency": "inconclusive: 21.9 µM [fluorescent, partial curve]"}]}]}
